Data taken from publication PMC2822853.
Results are given in words; binding and its absence hold for the method and conditions named. Binding seen in cells or lysates may run through a third protein. These calls come from enrichment with a bait or labelling near it, and not all partners need be listed.

B1: Mgc80361 (protein, UniProt Q6AXA1 1-385)
chain: MEKQTEVGVLLTEPGTLHPADEPRTDGGGAAADNGITIRQGSIRAGVGLKEYVAQVLRQLGYNGPLCCEEALVHSAELGAASQHFTSLCVWLVSELKVVSSMVENISPTEGPEDAETFQLEMSGVVNELHCPYTALTTGDVTCRLTNLDNCLQLLVFLSTELQAARIISNRKVPAMGSEGGSTEAVEELKQVGEAVGMPEHLLAVPAAEYMRMLQIKIAEITDAVPDFSRTAPLLKTELQPSQWEKLADLHWQLLREYECRMRMLVTRCDVTVQSFYWSERAKELGAAMKEVYWPLRQSLKTETRITMAHLLAAREEDSRILHTCSAVFRQNTQSSVNKVLMAGNVPDRGGRPNEIEPPMPTWTKRREGGGGQQWWGKRNKRRKK
B2: CKI-α (protein, UniProt P67963 1-337)
chain: MASSSGSKAEFIVGGKYKLVRKIGSGSFGDIYLAINITNGEEVAVKLESQKARHPQLLYESKLYKILQGGVGIPHIRWYGQEKDYNVLVMDLLGPSLEDLFNFCSRRFTMKTVLMLADQMISRIEYVHTKNFIHRDIKPDNFLMGIGRHCNKLFLIDFGLAKKYRDNRTRQHIPYREDKNLTGTARYASINAHLGIEQSRRDDMESLGYVLMYFNRTSLPWQGLKAATKKQKYEKISEKKMSTPVEVLCKGFPAEFAMYLNYCRGLRFEEAPDYMYLRQLFRILFRTLNHQYDYTFDWTMLKQKAAQQAASSSGQGQQAQTPTGKQTDKSKSNMKGF
B3: MVP (protein, UniProt Q6PF69 1-849)
chain: MSEESIIRIPPYCYIHVLDQNSNISRVETGPKTYIRQDNERVLHHPQRMVMVPPRHYCVIQNPVQRDSEEKVLFDDVGQAKLSHGDKEIRLTQDPFPLYPGEELQLGITPLTVVLANTALHLKALLDLEDESGKYVAGDEWLFEGPGTYIPRKEVEVVQTIQATVIRHNQAIRLRARKECKDREEQDRVTGEEWLVKKVGAYLPGVFEEVVDIVDAFVLTDKRALHIRATKTFRGDKGNLRRTGEEWLVTMEDTEAYIPNVYEEVVGVVDITTLNSRQYCVILDPVGEDGKPQLGQKRVVKGEKSFFLQPGESLEYGIQDVYILSEEEGLVLRALQVLEDKDEEGTEVERKPGDRWMIRGPIEYAPPVEVEVVVRREAIPLDENEGIYVRDIKTGKVRAVVGQSYMLTQDEELWEKELPANVETLLASGKDPLADRSERQGQAQEVQPRDKTRAVTYRVPHNAAVQVYDYREKKSRVVFGPELVVLGPDEQFTVLSLSGSTPKRANVIKAICLLLGPDFCTDIINIETADHARLQIKLSYNWHFDIKDRKDPAEASKLFTVPDFVGDACKAIASRIRGAVASVQFDDFHKNSNRIICSAVFGFDEAMKIRNSFRFPQNNLIITSVDIQTVEPVDQRTRDALQKSVQLAIEITTNSQEATARHEAERLEQEAKGRLERQRITDQAEAEKARKELLELEALSTIVESTGAAKAEAESKAEAARIEGEGAVLQAKLRAEALAIETDAELQRLRQARSEELRYLQDKNKLEVQKTQELAEIEIKKFREMVESIGSGTLRDIALAGPELQVKMLRGLGIQSTLITDGSTPINLFSTAHGLLGLTSKPAQEKESD
B4: HOOK2 (protein, UniProt Q6NRB0 1-721)
chain: MSSKRKVELCDSLLTWMQTFQVSGPCSSYEDLTGGVAIAQVLNRIDPSWFNEAWLVRVKKDTTENWRLKVSNLKRILQSVLEYYQDVLGHPVSDDHIPDVALIGEFSNDTELRKMVQLVLGCAISCDKKEEHIQQIMTLGESVQQAVMESIQELLSKAPSDAVTSESFINYDSQSRKYYFLSEDNDEKNEILQRCHDLEQQVSLLMEEKKNMMGENRTLKEQQEQSGMGTPQLFNKKLLLLQSQIEQLQEENYRLESSRDDYRQRCQELDRDVQELQQRNQDLTGLAHESQALRDEMDVLRHSSDRVGKLESLVDSYKKKLEDLGDLRRQVKLLEERNTMYMQRTFQLEEDLHKANASRGQVESLSRQVQELHKKHSTESLRAEKWQFEFQTLKEKFEALQKERERLIAERDSLRETNDELRCSHLQQTCLGQADLLLSGSSPPLENLAAEIVPAELRETVIRLQQENKMLCAQEASYHERLCDLQNFLEESNRSKNRLESESRLQQQQIKGLKAQVEELQKQLREQGNRAEDSSQLKRKLEEHLEMLHDAHSELQKKREYIETLEPKADLNMSRKVDELQQILHQKEEDMRAMEERYKRYVDKARTVIKSLDPKQQNYIPPEIQALKNQLQEKDTRIRHLETDYEKTKVQRDQEEKLIISAWYNMGMALHQKSTDEKTQPPNGAQSFLAQQRLATNARRGQISRSHTLLPRYTDKRQSLS
B5: Nif3l1bp1/THOC7 (protein, UniProt Q7SZ78 1-201)
chain: MGAVTDDEVIRKRLLIDGDGAGDDRRINLLVKSFVKWCNSGSQEEGYSQYQRMLSSLSQCEYSMGKTLLVHDMNLREMENYEKIYVDIESSIAAAHEKIAECKKQILQAKRIRKNRQEYDALAKVIEQHPDRHETLKQLEALDKELKQLSHTKENAEDKLELRRKQFHVLLSTIHELQQTLENDDKLAEESQESPMETQNP
B6: Lis1 (protein, UniProt Q90ZL4 1-410)
chain: MVLSQRQRDELNRAIADYLRSNGYEEAYSVFKKEAELDMNEELDIKYAGLLEKKWTSVIRLQKKVMELESKLNEAKEEFTSGGPIGQKRDPKEWIPRPPEKYALSGHRSPVTRVIFHPVFSVMVTASEDATIKVWDYETGDFERTLKGHTDSVQDISFDHSGKLLASCSADMTIKLWDFQGFECLRTMHGHDHNVSSVAIMPNGDHIVSASRDKTIKMWEVQTGYCVKTFTGHREWVRMVRPNQDGTLIASCSNDQTVRVWVVATKECKAELREHEHVVECISWAPESSYSTISDATGSETKRSGKPGPFLLSGSRDKTIKMWDISIGMCLMTLVGHDNWVRGVQFHPGGKFILSCADDKTIRIWDYKNKRCMKTLNAHEHFVTSLDFHKTAPYVVTGSVDQTVKVWECR
B7: XKid (protein, UniProt Q9I869 1-651)
chain: MVLTGPLQRESVSMAKRVSMLDQHKKSSCARVRVAVRLRPYMDEKDEAKATTVCVRGLDSQSLEIVNWRNQLETMQYQFDAFYGDSASQREIYMGSVCHILPHLLIGQNASVFAYGPTGAGKTHTMLGNPNQPGVIPRAVRDLLQMSRTAASAPENENWTYTINMSYVEIYQEKVMDLLEPKNKDLPIREDKDHNILIPGVTQKMINSFADFDEHFIPASQNRTVASTKLNDRSSRSHAVLLIKVQKSQQVVPFRQLTGKLYLIDLAGSEDNRRTGNQGIRLKESGAINSSLFTLSKVVDALNQGLPRIPYRDSKLTRLLQDSLGGSAHSVMITNIAPEQTYYFDTLTALNFAAKSKQIINKPFSQETTQTVVQPAMKRPREETGHIAGSQKRKKSKNDSTESSPNSSMDTAGKQKLNLATLDPAVVERLLKLDKILTEKGKKKAQLLSTPKRERMALLKKWEESQMEIERLKEKQKELEQKAMEAEARLEKSNNSDLSDSSVSENTFRAPLRGRNTSTAKVKKVLRVLPMQGNSQLQSTVEEGIPVFEKKKKKKQVTCEGLENQPTWEMNMRTDLLESGKERILKLLNTGSVKELKSLQRIGDKKAKLIIGWREVNGPFKNVEELACLEGISAKQVSSFIKANIMSSIAS

Molecular target: Taxol-stabilized microtubules (bovine)
Experiment: co-sedimentation + affinity purification with mass spectrometry; Taxol-stabilized bovine brain microtubules added to clarified Xenopus egg extract (with AMP-PNP), 20°C; centrifuged through glycerol cushions; bound proteins eluted first by 20 mM ATP, then by 0.5 M NaCl; 5-40% sucrose gradients, 1D or 2D gels, LC-MS/MS; only the target purified

Binder	binding
B1	binds
B2	binds
B3	binds
B4	binds
B5	binds
B6	binds
B7	binds
